PubChem BioAssay AID504764 – Drosophila RNAi Screening Center | 2011
In all, the deposit lists about 22,000 reagents; shown is an unselected part of those that have a named target and a result. Over the whole deposit, 403 (1.9%) got an active call. 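Unnormalised raw counts per well; ratio z-scores behind the hit calls and whether each hit raises or lowers signal are not deposited.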 Reagents against one gene are numbered here. The record does not give: the amount of reagent.

Assay: 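Genes whose knock-down alters Notch-dependent transcription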 (primary screen)
Cells: Drosophila Kc167 cells
Reagents: long dsRNA against Drosophila genes
Time to read-out: about 5 days (4 days dsRNA, then 24 h after transfection)
Challenge: transfection of constitutively active membrane-tethered Notch lacking the extracellular domain, read 24 h later
Detection: 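Light from a Notch-responsive E(spl)m3 luciferase reporter under active Notch, with control-promoter and no-Notch reporter wells to normalise; raw counts from paired wells a and b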
Direction: induced reporter light, run 1, well a and induced reporter light, run 1, well b: higher = more light from the Notch target reporter with active Notch; control promoter light, run 1, well a and control promoter light, run 1, well b: higher = more light from the viral control promoter (cell number, transfection, viability); uninduced reporter light, run 1, well a: higher = more light from the Notch target reporter without active Notch
Hit rule: 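Wells with low control signal or poorly matching duplicates excluded; duplicates averaged; per source plate, z beyond ±2 for induced/control log2 ratio or beyond ±1.8 for induced/uninduced marks a hit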
Meaning of the calls: active = modifier hit (raised or lowered Notch signal); inactive = not a hit

With knock-down of dyw, the record shows induced reporter light, run 1, well a = 1.21e5; induced reporter light, run 1, well b = 1.08e5; control promoter light, run 1, well a = 1.88e5; control promoter light, run 1, well b = 2.00e5; uninduced reporter light, run 1, well a = 9365; inactive.
Against CG14435, the values are induced reporter light, run 1, well a = 86025; induced reporter light, run 1, well b = 92400; control promoter light, run 1, well a = 1.11e5; control promoter light, run 1, well b = 1.25e5; uninduced reporter light, run 1, well a = 8725; inactive.
Atpalpha showed induced reporter light, run 1, well a = 1.48e5; induced reporter light, run 1, well b = 1.60e5; control promoter light, run 1, well a = 2.21e5; control promoter light, run 1, well b = 2.22e5; uninduced reporter light, run 1, well a = 14500; inactive.
Against Rab14, the entry reads induced reporter light, run 1, well a = 1.66e5; induced reporter light, run 1, well b = 1.90e5; control promoter light, run 1, well a = 1.49e5; control promoter light, run 1, well b = 1.71e5; uninduced reporter light, run 1, well a = 16435; inactive.
For gd, the values are induced reporter light, run 1, well a = 1.28e5; induced reporter light, run 1, well b = 1.30e5; control promoter light, run 1, well a = 2.36e5; control promoter light, run 1, well b = 2.06e5; uninduced reporter light, run 1, well a = 8950; inactive.
Depletion of CG14787 gave: induced reporter light, run 1, well a = 1.00e5; induced reporter light, run 1, well b = 1.08e5; control promoter light, run 1, well a = 2.25e5; control promoter light, run 1, well b = 2.17e5; uninduced reporter light, run 1, well a = 6882; inactive.
Depletion of Ror resulted in: induced reporter light, run 1, well a = 1.31e5; induced reporter light, run 1, well b = 1.62e5; control promoter light, run 1, well a = 84590; control promoter light, run 1, well b = 98365; uninduced reporter light, run 1, well a = 18160; inactive.
RpL8 #1 scored induced reporter light, run 1, well a = 6125; induced reporter light, run 1, well b = 5960; control promoter light, run 1, well a = 8970; control promoter light, run 1, well b = 10750; uninduced reporter light, run 1, well a = 475; inactive.
Against RpL8 #2 the deposit lists induced reporter light, run 1, well a = 7542; induced reporter light, run 1, well b = 7050; control promoter light, run 1, well a = 10900; control promoter light, run 1, well b = 13010; uninduced reporter light, run 1, well a = 365; inactive.
Twdlalpha showed induced reporter light, run 1, well a = 83700; induced reporter light, run 1, well b = 71635; control promoter light, run 1, well a = 66240; control promoter light, run 1, well b = 52155; uninduced reporter light, run 1, well a = 7912; inactive.
Silencing of saturn resulted in: induced reporter light, run 1, well a = 1.48e5; induced reporter light, run 1, well b = 1.25e5; control promoter light, run 1, well a = 1.98e5; control promoter light, run 1, well b = 2.30e5; uninduced reporter light, run 1, well a = 11255; inactive.

A run of entries from the list above:
Atpalpha → induced reporter light, run 1, well a = 1.48e5; induced reporter light, run 1, well b = 1.60e5; control promoter light, run 1, well a = 2.21e5; control promoter light, run 1, well b = 2.22e5; uninduced reporter light, run 1, well a = 14500; activity call = inactive
Rab14 → induced reporter light, run 1, well a = 1.66e5; induced reporter light, run 1, well b = 1.90e5; control promoter light, run 1, well a = 1.49e5; control promoter light, run 1, well b = 1.71e5; uninduced reporter light, run 1, well a = 16435; activity call = inactive

More results follow.
After knock-down of CG3740, the screen gave induced reporter light, run 1, well a = 1.05e5; induced reporter light, run 1, well b = 98310; control promoter light, run 1, well a = 1.29e5; control promoter light, run 1, well b = 1.53e5; uninduced reporter light, run 1, well a = 9740; inactive.
With knock-down of CG6178, the record shows induced reporter light, run 1, well a = 1.76e5; induced reporter light, run 1, well b = 2.10e5; control promoter light, run 1, well a = 2.47e5; control promoter light, run 1, well b = 2.60e5; uninduced reporter light, run 1, well a = 19200; inactive.
CG14232 scored induced reporter light, run 1, well a = 1.30e5; induced reporter light, run 1, well b = 1.31e5; control promoter light, run 1, well a = 90985; control promoter light, run 1, well b = 67190; uninduced reporter light, run 1, well a = 10040; inactive.
Silencing of mio #1 resulted in: induced reporter light, run 1, well a = 1.15e5; induced reporter light, run 1, well b = 1.33e5; control promoter light, run 1, well a = 1.37e5; control promoter light, run 1, well b = 1.38e5; uninduced reporter light, run 1, well a = 12230; inactive.
For mio #2, the entry reads inactive.
5-HT1A showed induced reporter light, run 1, well a = 93625; induced reporter light, run 1, well b = 73585; control promoter light, run 1, well a = 1.15e5; control promoter light, run 1, well b = 92935; uninduced reporter light, run 1, well a = 6010; inactive.
CG31678 #1 showed induced reporter light, run 1, well a = 1.99e5; induced reporter light, run 1, well b = 1.72e5; control promoter light, run 1, well a = 1.39e5; control promoter light, run 1, well b = 1.48e5; uninduced reporter light, run 1, well a = 13042; inactive.
After knock-down of CG31678 #2, the record shows induced reporter light, run 1, well a = 55975; induced reporter light, run 1, well b = 39935; control promoter light, run 1, well a = 26645; control promoter light, run 1, well b = 28660; uninduced reporter light, run 1, well a = 2080; inactive.
